Assay results as given in PubChem BioAssay AID248 (DTP/NCI, 2004).
The list does not hold the whole screen: it is rich in T/C values a quarter to a half above the control, in often repeated tests (any T/C) and in doses without a T/C. Further doses and runs are listed elsewhere. T/C: endpoint of the treated group in % of that of the vehicle group. Some entries give survivors of the animals treated and no T/C: the source holds a T/C of zero for them, seemingly a mark for toxic or unscored doses. Some survivor counts are full or nearly so, which does not show that the dose was tolerated: survival well below the control is almost never listed, so the zero probably covers shortened survival too. Survivors were counted at the toxicity check, usually on the fifth day, unless a day is given; later deaths do not show. Schedules are NCI's codes, taken here to give the interval after Q, in days (D) or hours (H), and the number of doses after X. For survival time, the PubChem record calls one and a half times the control and up active, and a quarter to a half above the control has no call in these data; cut-offs in other NCI protocols can differ. Some schedule codes hold Z or #, which are not explained here. Some T/C values carry the count of animals alive at the toxicity check (mostly the fifth day); where none is given, no animal had died by that day.

System: L1210 leukemia ip in BDF1 mice, survival T/C
Assay: NCI In Vivo Anticancer Drug Screen. Data for tumor model L1210 Leukemia (intraperitoneal) in B6D2F1 (BDF1) mice
Conditions: T/C endpoint: mean survival time, higher T/C = longer survival
[1] = dose: 400.0 mg/kg/injection, schedule: Q04DX002 (ip), vehicle: saline
[2] = dose: 400.0 mg/kg/injection, schedule: Q04DX003 (ip), vehicle: saline with Tween-80
[3] = dose: 100.0 mg/kg/injection, schedule: Q04DX002 (ip), vehicle: Klucel (hydroxypropylcellulose) (HPC)
[4] = dose: 200.0 mg/kg/injection, schedule: Q04DX002 (ip), vehicle: Klucel (hydroxypropylcellulose) (HPC)
[5] = dose: 400.0 mg/kg/injection, schedule: Q04DX002 (ip), vehicle: Klucel (hydroxypropylcellulose) (HPC)
[6] = dose: 400.0 mg/kg/injection, schedule: Q01DX009 (ip), vehicle: Klucel (hydroxypropylcellulose) (HPC)
[7] = dose: 400.0 mg/kg/injection, schedule: Q01DX001 (ip), vehicle: saline
[8] = dose: 200.0 mg/kg/injection, schedule: Q01DX009 (ip), vehicle: saline with Tween-80
[9] = dose: 400.0 mg/kg/injection, schedule: Q01DX009 (ip), vehicle: saline with Tween-80
[10] = dose: 300.0 mg/kg/injection, schedule: Q01DX001 (ip), vehicle: saline
[11] = dose: 100.0 mg/kg/injection, schedule: Q01DX009 (ip), vehicle: Klucel (hydroxypropylcellulose) (HPC)
[12] = dose: 400.0 mg/kg/injection, schedule: Q04DX003 (ip), vehicle: saline
[13] = dose: 100.0 mg/kg/injection, schedule: Q04DX003 (ip), vehicle: saline with Tween-80
[14] = dose: 200.0 mg/kg/injection, schedule: Q04DX003 (ip), vehicle: saline with Tween-80

C=CCSCC(=O)Cl
survivor count (dose: 200.0 mg/kg/injection, schedule: Q04DX002 (ip), vehicle: saline): 2 of 3 | survivor count [1]: 0 of 3

C=CN1C(=O)N(C=C)C(C)(CC(C)C)C1=O (centres undefined)
survivor count [2]: 6 of 6

CC(=O)CC(C)=NCCN=C(C)CC(C)=O.[Ni]
survivor count (dose: 25.0 mg/kg/injection, schedule: Q01DX009 (ip), vehicle: gum acacia): 6 of 6 | survivor count (dose: 50.0 mg/kg/injection, schedule: Q01DX009 (ip), vehicle: gum acacia): 0 of 6 | survivor count (dose: 100.0 mg/kg/injection, schedule: Q04DX003 (ip), vehicle: gum acacia): 0 of 6 | survivor count (dose: 200.0 mg/kg/injection, schedule: Q04DX003 (ip), vehicle: gum acacia): 0 of 6 | survivor count (dose: 400.0 mg/kg/injection, schedule: Q04DX003 (ip), vehicle: gum acacia): 0 of 6

O=C(CCl)NCC(O)CNC(=O)CCl
T/C (dose: 60.0 mg/kg/injection, schedule: Q01DX Z (ip), vehicle: saline): 135 % of control

[CH3][Sn]([CH3])([CH3])[O]C(=O)CCl
survivor count (dose: 3.12 mg/kg/injection, schedule: Q01DX009 (ip), vehicle: Klucel (hydroxypropylcellulose) (HPC)): 0 of 6 | survivor count (dose: 3.12 mg/kg/injection, schedule: Q04DX002 (ip), vehicle: Klucel (hydroxypropylcellulose) (HPC)): 1 of 3 | survivor count (dose: 6.25 mg/kg/injection, schedule: Q04DX002 (ip), vehicle: Klucel (hydroxypropylcellulose) (HPC)): 0 of 3 | survivor count (dose: 12.5 mg/kg/injection, schedule: Q04DX002 (ip), vehicle: Klucel (hydroxypropylcellulose) (HPC)): 0 of 3 | survivor count (dose: 25.0 mg/kg/injection, schedule: Q04DX002 (ip), vehicle: Klucel (hydroxypropylcellulose) (HPC)): 0 of 3 | survivor count (dose: 50.0 mg/kg/injection, schedule: Q04DX002 (ip), vehicle: Klucel (hydroxypropylcellulose) (HPC)): 0 of 3 | survivor count [3]: 0 of 3 | survivor count [4]: 0 of 3 | survivor count [5]: 0 of 3

Cc1cc(C)c(N(C)C(=O)CCC(=O)O)c(C)c1Br
survivor count [6]: 1 of 6

O=C(NNc1ccccc1)c1ccccc1
survivor count [6]: 1 of 6

OCC1CC(n2cnc3c(=S)nc[nH]c32)C(O)C1O (centres undefined)
survivor count [7]: 2 of 4

CSc1nnnn1-c1ccccc1
survivor count (dose: 200.0 mg/kg/injection, schedule: Q04DX003 (ip), vehicle: acetone): 6 of 6 | survivor count [2]: 5 of 6

CCOC(=O)c1cnc(NN)nc1NCc1ccccc1
survivor count [2]: 3 of 6

CC1([N+](=O)[O-])COP(=O)(O)OC1 (centres undefined)
survivor count (dose: 100.0 mg/kg/injection, schedule: Q01DX001 (ip), vehicle: saline): 4 of 4

O=P(O)(c1ccccc1)c1ccccc1
survivor count [5]: 3 of 3

C[N+](C)(C)c1cc2c(nn1)Nc1ccccc1S2
survivor count (dose: 200.0 mg/kg/injection, schedule: Q01DX001 (ip), vehicle: saline): 2 of 4 | survivor count [7]: 1 of 4

Cc1cccc(/C=N/N(C)C(N)=S)n1
survivor count (dose: 400.0 mg/kg/injection, schedule: Q01DX001 (ip), vehicle: carboxymethylcellulose (CMC)): 1 of 6

CSc1ccc(P(=NS(=O)(=O)c2ccc(C)cc2)(c2ccc(SC)cc2)c2ccc(SC)cc2)cc1
survivor count [6]: 1 of 6

NC(N)=NCCN1C(c2ccccc2)C1c1ccccc1 (centres undefined)
survivor count (dose: 100.0 mg/kg/injection, schedule: Q01DX009 (ip), vehicle: saline with Tween-80): 1 of 6 | survivor count [8]: 0 of 6 | survivor count [9]: 0 of 6

CCCCN1c2ccccc2NP1(=S)c1ccccc1 (centres undefined)
survivor count (dose: 400.0 mg/kg/injection, schedule: Q04DX002 (ip), vehicle: DMSO): 2 of 3

CNC(=O)c1cc(C(=O)NC)c[n+](Cc2c(Cl)cccc2Cl)c1
survivor count [10]: 3 of 6

CCOc1ccccc1NC(=O)Nc1cccc(Cl)c1
T/C [11]: 140 % of control [5 of 6 alive]

CCOC(=O)CCCS
survivor count (dose: 300.0 mg/kg/injection, schedule: Q01DX001 (ip), vehicle: carboxymethylcellulose (CMC)): 0 of 6

CC1=CC(=O)C(C(O)(C(F)(F)Cl)C(F)(F)Cl)C(C)(C)C1 (centres undefined) (tested in a mixture with another compound)
survivor count [9]: 1 of 6

O=C(Cc1ccccc1)Nc1ccc[n+](Cc2ccc(S(=O)(=O)F)cc2)c1
survivor count [12]: 2 of 6

O=C(Cc1ccccc1)NCCO
T/C [1]: 125 % of control

CC(O)c1ccc[n+](CCc2cn(C)c3ccccc23)c1 (centres undefined)
survivor count [13]: 1 of 6 | survivor count [14]: 0 of 6 | survivor count [2]: 0 of 6

CC1(C)SC2C(NC(=O)C(C(=O)O)c3ccccc3)C(=O)N2C1C(=O)O (centres undefined)
T/C (dose: 50.0 mg/kg/injection, schedule: Q01DX009 (ip), vehicle: saline): 128 % of control

CC(CN(C)C)C(=O)/C=C/c1ccccc1 (centres undefined)
survivor count (dose: 75.0 mg/kg/injection, schedule: Q01DX009 (ip), vehicle: saline): 6 of 6 | survivor count (dose: 100.0 mg/kg/injection, schedule: Q04DX003 (ip), vehicle: saline): 6 of 6 | survivor count (dose: 115.0 mg/kg/injection, schedule: Q01DX009 (ip), vehicle: saline): 3 of 6 | survivor count (dose: 170.0 mg/kg/injection, schedule: Q01DX009 (ip), vehicle: saline): 0 of 6 | survivor count (dose: 200.0 mg/kg/injection, schedule: Q04DX003 (ip), vehicle: saline): 0 of 6 | survivor count [12]: 0 of 6

CCOP(=S)(OCC)OP(=S)(OCC)OCC
survivor count (dose: 4.0 mg/kg/injection, schedule: Q01DX009 (ip), vehicle: other): 0 of 6

CCCCCCCCCCCCCCCCOC(=O)C[n+]1cccc(C(N)=O)c1
survivor count [12]: 2 of 6

CC1=C2CC(C(C)(C)O)CCC2(C)CC/C1=N\NC(N)=S (centres undefined)
survivor count [8]: 6 of 6

COc1ccc(OC)c(NC(=O)Nc2cccc(F)c2)c1
survivor count (dose: 400.0 mg/kg/injection, schedule: Q01DX009 (ip), vehicle: gum acacia): 6 of 6

O=[N+]([O-])c1cc(S(=O)(=O)OCC2CO2)ccc1Cl (centres undefined)
survivor count (dose: 50.0 mg/kg/injection, schedule: Q01DX009 (ip), vehicle: Klucel (hydroxypropylcellulose) (HPC)): 2 of 6 | survivor count [11]: 0 of 6 | survivor count (dose: 200.0 mg/kg/injection, schedule: Q01DX009 (ip), vehicle: Klucel (hydroxypropylcellulose) (HPC)): 0 of 6 | survivor count [6]: 0 of 6

c1ccc2c[n+](CC[n+]3ccc4ccccc4c3)ccc2c1
survivor count (dose: 150.0 mg/kg/injection, schedule: Q04DX003 (ip), vehicle: saline): 1 of 6 | survivor count (dose: 300.0 mg/kg/injection, schedule: Q04DX003 (ip), vehicle: saline): 0 of 6

O=S(=O)(Cl)OC1C2COC(O2)C(OS(=O)(=O)Cl)C1OS(=O)(=O)Cl (centres undefined)
survivor count [13]: 6 of 6 | survivor count [14]: 6 of 6 | survivor count [2]: 6 of 6

CC(=O)Nc1cc(NC(C)=O)cc(N(CCO)CCO)c1
survivor count (dose: 200.0 mg/kg/injection, schedule: Q01DX009 (ip), vehicle: water): 4 of 6

CCn1c2ccccc2c2cc(C=O)ccc21
survivor count (dose: 100.0 mg/kg/injection, schedule: Q01DX009 (ip), vehicle: other): 3 of 3

CC(C)CC(=O)NC(C)C(=O)NC(Cc1ccccc1)C(=O)CCl (centres undefined)
survivor count [3]: 3 of 3 | survivor count [4]: 0 of 3 | survivor count [5]: 0 of 3

CC(=O)OC(CC(O)(C(F)(F)F)C(F)(F)F)C(C)(C)C (centres undefined)
survivor count (dose: 100.0 mg/kg/injection, schedule: Q01DX009 (ip), vehicle: saline): 3 of 6 | survivor count [14]: 6 of 6 | survivor count [2]: 6 of 6

CN(C)CCc1ccccc1
survivor count [9]: 0 of 6

C/C=C1/CN2CCC1CC2C(O)c1ccnc2ccc(O)cc12 (centres undefined)
survivor count (dose: 150.0 mg/kg/injection, schedule: Q01DX001 (ip), vehicle: saline): 3 of 6 | survivor count [10]: 0 of 6
